## Results of single-concentration screens

The values are deposited in ChEMBL (CHEMBL3988442, “University of Dundee, Small-Polar-MMV Screening Library” (2021)).

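Whole-parasite assay of Trypanosoma brucei over 72 hours; the read-out is not stated. Compounds at 30 µM. The record gives no direction; compounds that gave an IC50 in retests scored well above the rest, so higher reads as stronger inhibition. Values scatter widely below zero; nearly all retest evidence comes from the higher of the two concentrations used. Size under these conditions: about 64,000 compounds, about 940 of them at 50% or above in at least one test.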

Each number is a percent effect as filed.
The record does not define 0% and 100%; most values in the screen are far below 50% and negative numbers occur (in some assays of this library far below -100).
Compounds were drawn at random from those tested, without regard to their results.

structure,percent effect
Cc1cc(OCCC(=O)Nc2cccc(F)c2)nnc1C,46.79%
CNC(=O)[C@@H]1C[C@@H](N)CN1C1CCN(Cc2ccccn2)CC1,-17.78%
COc1ccc(Cl)cc1CS(=O)(=O)CC(=O)N(C)Cc1ccccc1F,19.7%
COc1cccc(N2CCN(Cc3cc(C)cc(F)c3)CC2=O)c1,-4.143%
Cc1ccc(NC2CCN(C(=O)CCc3ccccc3)CC2)nn1,3.376%
CCN(C)C(=O)c1ccnn1-c1ccc2ccccn12,-69.92%
Cc1nc[nH]c1-c1nccn1-c1cccc(CN2CCCC2)c1,-41.8%
CCN(CC)S(=O)(=O)N1CCCC(c2nccn2Cc2ccncc2)C1 (stereo not drawn),-31.9%
Cc1nn(C)c(N(C)C)c1CNCc1ccc(Cn2cccn2)cc1,-36.06%
Cc1[nH]c2ccccc2c1CCNC(=O)N1CCC2(C1)OCCO2,-2.8%
COCC(=O)NC1CC2(CCN(CCO)CC2)c2ccccc21.O=C(O)C(F)(F)F (stereo not drawn),-40.8%
CCn1nc(C(=O)N2CCCC2c2noc(C)n2)ccc1=O (stereo not drawn),-29.59%
CCOC1CCN(C(=O)c2cnn(-c3ccccc3Cl)c2)CC1,38.2%
CCCNC(=O)c1cc(C(C)C)nc(N2CCCCC2)n1,-21.44%
COCCn1ccc(NCc2sccc2C)n1,13.74%
Cc1nn(C)c(C)c1C1CCCN1C(=O)c1cnccn1 (stereo not drawn),8.878%
CN1CCC(Cc2cnc(CNC(=O)Cc3cccc(F)c3)cn2)CC1,2.689%
CN(Cc1nnc(C2CC2)n1C)C(=O)c1ccnc(OC2CCC2)c1,-3.437%
CC(=O)NCC(Cc1cccc(F)c1)n1cccc1 (stereo not drawn),14.45%
CCc1cc(NC(CCO)c2ccc(OC)cc2)n2nccc2n1 (stereo not drawn),-33.27%
COC(=O)c1cc(NCc2cscn2)ccc1C,-4.246%
COc1ccc(CN2CC[C@@H](N)[C@@H](OC)C2)cc1Cn1cncn1,-15.59%
Cc1noc(C)c1CN1CCC2(CC1)C(c1ccccc1)CC(=O)N2C.O=C(O)C(F)(F)F (stereo not drawn),-57.86%
c1cc2occc2c(N2CCCC(c3nncn3C3CC3)C2)n1 (stereo not drawn),-58.81%
Cc1cnc(CN2CCN(C(C)c3nc(C4CC4)no3)CC2)cn1 (stereo not drawn),-5.856%
CC(C)(C)OC(=O)N1CCCN1C(=O)c1cccc2cc[nH]c12,-22.23%
CCc1nc(CC2CN(c3ncnc4sc(C)c(C)c34)CCO2)no1 (stereo not drawn),0.7576%
CC(C)(C)c1nnc(CN2CCN(CC(O)c3ccccc3)CC2)o1 (stereo not drawn),-19.62%
O=C(C1CCCO1)N1CCCn2c(nnc2Cn2cccc2)C1 (stereo not drawn),-58.62%
Cc1nnc(C2CCN(c3ccccc3)CC2)o1,-31.11%
CCN(CC)S(=O)(=O)c1ccc(OC)c(NC(=O)CSC)c1,-35.72%
CC(=O)N1CCCN(C(=O)NCCCc2cn[nH]c2C)CC1,-96.88%
O=C(O)C(F)(F)F.[H][C@@]12CCN(Cc3nccs3)[C@]1([H])C[C@@H](C(=O)N(C)C)O2,-77.1%
Cc1cc(CN2CCN(C(=O)NCCCc3cn[nH]c3C)CC2)on1,-47.1%
CNc1cc(-c2ccc(COCCN)cc2)c2cc[nH]c2n1,-16.28%
COc1ccc(NC(=O)NC(C)c2nc[nH]n2)cc1Cl (stereo not drawn),9.047%
CN(C)C(=O)CN1CCC2(CCCN(Cc3cccnc3)C2)C1=O.O=C(O)C(F)(F)F.O=C(O)C(F)(F)F (stereo not drawn),-19.59%
Cc1ncsc1CNc1ccn(Cc2ccccc2)n1,3.118%
O=C(O)C1CN(c2cccc(F)c2)CCO1 (stereo not drawn),-2.388%
CC1CN(c2ccc(NC(=O)Cn3cccn3)cc2)CCO1 (stereo not drawn),22.36%
CS(=O)(=O)NCCC(=O)NCc1cccnc1-n1cnc2ccccc21,-44.54%
CCN(C)C(=O)C1(c2ccc(F)cc2F)CCC1,-18.67%
CC1c2ncc(COc3cccnc3)n2CCN1C(=O)C1=CCCCC1.O=C(O)C(F)(F)F (stereo not drawn),-5.837%
O=C(c1ccccn1)N1CCC(c2nccn2Cc2ccncc2)CC1,-14.34%
Cl.Cl.Cn1cc(C(=O)NCc2cncc3c2CCN(c2ccccn2)C3)cn1,-7.246%
CCc1nc(CN2CCOC(Cn3cncn3)C2)no1 (stereo not drawn),-44.33%
CN1CC(=O)N(c2cnn(C)c2)CC12CCN(C(=O)c1ccsc1)C2.O=C(O)C(F)(F)F (stereo not drawn),-8.298%
CNC(=O)C1Cn2ccnc2C2(CCN(C(=O)c3ccoc3C)CC2)O1.O=C(O)C(F)(F)F (stereo not drawn),-89.25%
N#Cc1ccc(OC2CCN(C(=O)c3ccc(Br)o3)CC2)nc1,9.938%
COc1ccccc1CN1CC[C@]2(C[C@H](OC)CO2)C1.O=C(O)C(F)(F)F,32.04%
O=c1n(Cc2cccc(F)c2)nc2ncccn12,-48.04%
Cc1ccccc1CN(Cc1ccncc1)CC(C)C,-5.219%
Cc1ccccc1CNc1nc(O)cc(C2CC(=O)N(C)C2)n1 (stereo not drawn),-3.759%
CS(=O)(=O)N1CCCC(n2nnn(-c3ccccc3)c2=O)C1 (stereo not drawn),9.74%
CCNC(=O)CNS(=O)(=O)Cc1cc(-c2ccccc2)no1,14.94%
CN(CCCNC(=O)c1ccccc1F)CC(F)(F)F,-9.035%
CCCC(=O)NCc1cccc(C(=O)OC)c1,-37.39%
[H][C@]12CC[C@]([H])(CN(S(C)(=O)=O)C1)N(C(=O)CCc1n[nH]c3c1CCCC3)C2,13.13%

The first 5 entries again:

- Cc1cc(OCCC(=O)Nc2cccc(F)c2)nnc1C : 46.79%
- CNC(=O)[C@@H]1C[C@@H](N)CN1C1CCN(Cc2ccccn2)CC1 : -17.78%
- COc1ccc(Cl)cc1CS(=O)(=O)CC(=O)N(C)Cc1ccccc1F : 19.7%
- COc1cccc(N2CCN(Cc3cc(C)cc(F)c3)CC2=O)c1 : -4.143%
- Cc1ccc(NC2CCN(C(=O)CCc3ccccc3)CC2)nn1 : 3.376%